PubChem BioAssay AID504764 | Drosophila RNAi Screening Center | 2011

Aim: 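Genes whose knock-down alters Notch-dependent transcription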 (primary screen)
Cell system: Drosophila Kc167 cells
Reagent: long dsRNA against Drosophila genes
Timing: about 5 days (4 days dsRNA, then 24 h after transfection)
Conditions: transfection of constitutively active membrane-tethered Notch lacking the extracellular domain, read 24 h later
Read-out: 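Light from a Notch-responsive E(spl)m3 luciferase reporter under active Notch, with control-promoter and no-Notch reporter wells to normalise; raw counts from paired wells a and b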
Reading the numbers: induced reporter light, run 1, well a and induced reporter light, run 1, well b: higher = more light from the Notch target reporter with active Notch; control promoter light, run 1, well a and control promoter light, run 1, well b: higher = more light from the viral control promoter (cell number, transfection, viability); uninduced reporter light, run 1, well a: higher = more light from the Notch target reporter without active Notch
Hit rule: 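Wells with low control signal or poorly matching duplicates excluded; duplicates averaged; per source plate, z beyond ±2 for induced/control log2 ratio or beyond ±1.8 for induced/uninduced marks a hit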
Calls: active = modifier hit (raised or lowered Notch signal); inactive = not a hit
The screen tested about 22,000 reagents; shown is an unselected part of those that have a named target and a result. Over the whole deposit, 403 (1.9%) were called active. 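Unnormalised raw counts per well; ratio z-scores behind the hit calls and whether each hit raises or lowers signal are not deposited.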 The numbers tell different reagents against one gene apart. No sequences are given here. Not given: the amount of reagent.

SmydA-1 (SET and MYND domain containing, arthropod-specific, member 1) scored induced reporter light, run 1, well a = 1.83e5; induced reporter light, run 1, well b = 1.19e5; control promoter light, run 1, well a = 1.47e5; control promoter light, run 1, well b = 1.31e5; uninduced reporter light, run 1, well a = 11080; inactive.
SMC1 (Structural maintenance of chromosomes 1) gave induced reporter light, run 1, well a = 1.15e5; induced reporter light, run 1, well b = 1.08e5; control promoter light, run 1, well a = 1.42e5; control promoter light, run 1, well b = 1.48e5; uninduced reporter light, run 1, well a = 9735; inactive.
CG10616 showed induced reporter light, run 1, well a = 1.98e5; induced reporter light, run 1, well b = 1.79e5; control promoter light, run 1, well a = 77685; control promoter light, run 1, well b = 44140; uninduced reporter light, run 1, well a = 12942; active.
Against CG3699 #1 the deposit lists induced reporter light, run 1, well a = 1.33e5; induced reporter light, run 1, well b = 1.26e5; control promoter light, run 1, well a = 1.95e5; control promoter light, run 1, well b = 2.17e5; uninduced reporter light, run 1, well a = 8195; inactive.
With knock-down of CG3699 #2 the results were induced reporter light, run 1, well a = 53590; induced reporter light, run 1, well b = 48930; control promoter light, run 1, well a = 86155; control promoter light, run 1, well b = 78525; uninduced reporter light, run 1, well a = 5095; inactive.
Ptp10D (Protein tyrosine phosphatase 10D) showed induced reporter light, run 1, well a = 1.16e5; induced reporter light, run 1, well b = 1.18e5; control promoter light, run 1, well a = 2.70e5; control promoter light, run 1, well b = 1.91e5; uninduced reporter light, run 1, well a = 9510; inactive.
Kat60 (Katanin 60) showed induced reporter light, run 1, well a = 1.29e5; induced reporter light, run 1, well b = 1.17e5; control promoter light, run 1, well a = 99290; control promoter light, run 1, well b = 93570; uninduced reporter light, run 1, well a = 7038; inactive.
After knock-down of Optix #1, the record shows induced reporter light, run 1, well a = 95020; induced reporter light, run 1, well b = 1.11e5; control promoter light, run 1, well a = 1.31e5; control promoter light, run 1, well b = 1.36e5; uninduced reporter light, run 1, well a = 4635; inactive.
For Optix #2 the deposit lists induced reporter light, run 1, well a = 1.44e5; induced reporter light, run 1, well b = 1.52e5; control promoter light, run 1, well a = 1.39e5; control promoter light, run 1, well b = 1.29e5; uninduced reporter light, run 1, well a = 10960; inactive.
After knock-down of Optix #3, the record shows inactive.
Against ItgaPS4 (Integrin alphaPS4 subunit), the entry reads induced reporter light, run 1, well a = 86320; induced reporter light, run 1, well b = 83125; control promoter light, run 1, well a = 98475; control promoter light, run 1, well b = 91335; uninduced reporter light, run 1, well a = 7535; inactive.
side (sidestep) #1 scored induced reporter light, run 1, well a = 1.12e5; induced reporter light, run 1, well b = 1.29e5; control promoter light, run 1, well a = 1.76e5; control promoter light, run 1, well b = 1.58e5; uninduced reporter light, run 1, well a = 11975; inactive.
side (sidestep) #2 showed induced reporter light, run 1, well a = 1.12e5; induced reporter light, run 1, well b = 1.00e5; control promoter light, run 1, well a = 1.45e5; control promoter light, run 1, well b = 1.24e5; uninduced reporter light, run 1, well a = 9178; inactive.
Against side (sidestep) #3, the entry reads induced reporter light, run 1, well a = 1.50e5; induced reporter light, run 1, well b = 1.48e5; control promoter light, run 1, well a = 2.15e5; control promoter light, run 1, well b = 1.97e5; uninduced reporter light, run 1, well a = 14005; inactive.
side (sidestep) #4 showed induced reporter light, run 1, well a = 1.38e5; induced reporter light, run 1, well b = 1.19e5; control promoter light, run 1, well a = 1.86e5; control promoter light, run 1, well b = 1.95e5; uninduced reporter light, run 1, well a = 12045; inactive.
side (sidestep) #5 showed induced reporter light, run 1, well a = 1.12e5; induced reporter light, run 1, well b = 93460; control promoter light, run 1, well a = 1.49e5; control promoter light, run 1, well b = 1.12e5; uninduced reporter light, run 1, well a = 9310; inactive.
CNT1 (Concentrative nucleoside transporter 1) scored induced reporter light, run 1, well a = 2.13e5; induced reporter light, run 1, well b = 1.83e5; control promoter light, run 1, well a = 1.94e5; control promoter light, run 1, well b = 2.09e5; uninduced reporter light, run 1, well a = 17325; inactive.
After knock-down of snRNP-U1-C (small ribonucleoprotein particle U1 subunit C), the record shows induced reporter light, run 1, well a = 1.33e5; induced reporter light, run 1, well b = 1.26e5; control promoter light, run 1, well a = 1.34e5; control promoter light, run 1, well b = 1.39e5; uninduced reporter light, run 1, well a = 9310; inactive.
Silencing of Or65a (Odorant receptor 65a) resulted in: induced reporter light, run 1, well a = 2.07e5; induced reporter light, run 1, well b = 1.85e5; control promoter light, run 1, well a = 2.54e5; control promoter light, run 1, well b = 3.11e5; uninduced reporter light, run 1, well a = 13542; active.
Knock-down of CG15136 gave: induced reporter light, run 1, well a = 1.14e5; induced reporter light, run 1, well b = 1.16e5; control promoter light, run 1, well a = 1.06e5; control promoter light, run 1, well b = 1.28e5; uninduced reporter light, run 1, well a = 10350; inactive.
Against CG33346, the values are inactive.
Silencing of CG16922 (retired record) came out at: induced reporter light, run 1, well a = 15335; induced reporter light, run 1, well b = 14555; control promoter light, run 1, well a = 31150; control promoter light, run 1, well b = 26910; uninduced reporter light, run 1, well a = 3838; inactive.
Silencing of Rep (Rab escort protein) gave: induced reporter light, run 1, well a = 40330; induced reporter light, run 1, well b = 40665; control promoter light, run 1, well a = 52955; control promoter light, run 1, well b = 66350; uninduced reporter light, run 1, well a = 3175; inactive.
For CG3402 the deposit lists induced reporter light, run 1, well a = 71865; induced reporter light, run 1, well b = 85045; control promoter light, run 1, well a = 1.40e5; control promoter light, run 1, well b = 1.27e5; uninduced reporter light, run 1, well a = 6405; inactive.
